Reference: PubChem BioAssay AID1259254 (NCATS, 2017)
Test: 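Gene knock-downs that lead to re-replication, shown by excess G2 DNA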 (primary screen). System: human HCT116 colorectal cancer cells. Knock-down reagent: single siRNA against human genes. Time to read-out: 3 days. Measurement: 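Imaged Hoechst DNA stain sorts each cell into a cycle phase by DNA amount; per plate, G2 fraction set to 0% for non-targeting and 100% for GMNN siRNA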. Scale: G2 robust z-score and G2 cells, % of GMNN control: higher = more G2 cells, more excess DNA replication; raw share of cells in G2: higher = larger share of cells with G2 DNA content. Rule for the call: 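An siRNA counts as active if its G2 robust z-score lies at least 5 MADs above the screen median; here such calls match roughly 38% of GMNN control or more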.
In all, the deposit lists about 59,000 reagents; shown is a random part of them. Over the whole deposit, about 1,550 (2.6%) are marked active. 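G2 share is only a proxy for re-replication; each gene was hit by three separate siRNAs, and active genes were retested.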 Raw values vary from plate to plate and are shown uncorrected. Unmarked entries are inactive. Reagents against one gene are numbered here. Not stated in the record: the amount of reagent.

| target gene | reagent no. | G2 robust z-score | G2 cells, % of GMNN control | raw share of cells in G2 (%) |
| --- | --- | --- | --- | --- |
| ZNF718 (GeneID 255403) | 1 | 2.19 | 18.4 | 9.41 |
| ZNF718 (GeneID 255403) | 2 | 3.15 | 25.2 | 11.9 |
| ZNF718 (GeneID 255403) | 3 | 0.564 | 6.93 | 5.96 |
| PLXNA3 (GeneID 55558) | 1 | 1.62 | 14.4 | 10.4 |
| PLXNA3 (GeneID 55558) | 2 | 0.459 | 6.2 | 7.52 |
| PLXNA3 (GeneID 55558) | 3 | 0.202 | 4.39 | 5.09 |
| COL26A1 (GeneID 136227) | 1 | -0.268 | 1.09 | 3.54 |
| COL26A1 (GeneID 136227) | 2 | -0.334 | 0.618 | 3.3 |
| COL26A1 (GeneID 136227) | 3 | -0.85 | -3.01 | 2.47 |
| AKR1C4 (GeneID 1109) | 1 | 4.1 | 31.8 | 16.3 |
| AKR1C4 (GeneID 1109) | 2 | -0.0681 | 2.49 | 5.9 |
| AKR1C4 (GeneID 1109) | 3 | 4.36 | 33.6 | 15.7 |
| CDIP1 (GeneID 29965) | 1 | 0.898 | 9.28 | 6.18 |
| CDIP1 (GeneID 29965) | 2 | 2.01 | 17.1 | 10.4 |
| CDIP1 (GeneID 29965) | 3 | 1.38 | 12.6 | 9.33 |
| ERMAP (GeneID 114625) | 1 | -0.0511 | 2.61 | 6.09 |
| ERMAP (GeneID 114625) | 2 | 3.13 | 25 | 13.9 |
| ERMAP (GeneID 114625) | 3 | -0.238 | 1.3 | 6.27 |
| USP4 (GeneID 7375) | 1 | 0.0569 | 3.37 | 6.73 |
| USP4 (GeneID 7375) | 2 | 0.0125 | 3.06 | 5.99 |
| USP4 (GeneID 7375) | 3 | -0.609 | -1.31 | 3.42 |
| AGMO (GeneID 392636) | 1 | 0.211 | 4.45 | 5.43 |
| AGMO (GeneID 392636) | 2 | 1.18 | 11.3 | 8 |
| AGMO (GeneID 392636) | 3 | 1.55 | 13.9 | 10.5 |
| IL2RB (GeneID 3560) | 1 | -1.11 | -4.84 | 3.84 |
| IL2RB (GeneID 3560) | 2 | 0.335 | 5.32 | 6.15 |
| IL2RB (GeneID 3560) | 3 | 1.35 | 12.4 | 9.57 |
| GRM1 (GeneID 2911) | 1 | -0.512 | -0.638 | 5.61 |
| GRM1 (GeneID 2911) | 2 | 1.85 | 16 | 10.1 |
| GRM1 (GeneID 2911) | 3 | -0.628 | -1.45 | 2.82 |
| MEIKIN (GeneID 728637) | 1 | 0.698 | 7.88 | 6.95 |
| MEIKIN (GeneID 728637) | 2 | -0.6 | -1.25 | 2.91 |
| MEIKIN (GeneID 728637) | 3 | 2.75 | 22.3 | 11.8 |
| OR10X1 (GeneID 128367) | 1 | 1.99 | 17 | 10.6 |
| OR10X1 (GeneID 128367) | 2 | -0.0304 | 2.75 | 3.98 |
| OR10X1 (GeneID 128367) | 3 | 0.15 | 4.02 | 4.04 |
| PROCA1 (GeneID 147011) | 1 | 0.815 | 8.7 | 8.36 |
| PROCA1 (GeneID 147011) | 2 | -0.944 | -3.67 | 3.36 |
| PROCA1 (GeneID 147011) | 3 | -1.31 | -6.28 | 2.96 |
| CKAP2L (GeneID 150468) | 1 | 0.925 | 9.48 | 7.01 |
| CKAP2L (GeneID 150468) | 2 | 0.352 | 5.44 | 4.59 |
| CKAP2L (GeneID 150468) | 3 | 0.167 | 4.14 | 4.51 |
| TOM1L1 (GeneID 10040) | 1 | -0.158 | 1.86 | 3.83 |
| TOM1L1 (GeneID 10040) | 2 | 0.514 | 6.59 | 7.69 |
| TOM1L1 (GeneID 10040) | 3 | -0.157 | 1.86 | 5.51 |
| CDC42EP3 (GeneID 10602) | 1 | 1.54 | 13.8 | 10.4 |
| CDC42EP3 (GeneID 10602) | 2 | 2.13 | 18 | 11.6 |
| CDC42EP3 (GeneID 10602) | 3 | -0.0142 | 2.87 | 4.25 |

An excerpt taken from the entries so far:
| target gene | reagent no. | G2 robust z-score | G2 cells, % of GMNN control | raw share of cells in G2 (%) |
| --- | --- | --- | --- | --- |
| ZNF718 (GeneID 255403) | 1 | 2.19 | 18.4 | 9.41 |
| ZNF718 (GeneID 255403) | 2 | 3.15 | 25.2 | 11.9 |
| ZNF718 (GeneID 255403) | 3 | 0.564 | 6.93 | 5.96 |
